Record: PubChem BioAssay AID686943 (Drosophila RNAi Screening Center, 2013)
In all, the deposit lists about 23,000 reagents; shown is a random part of those that have a named target and a result. 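Extra replicates exist only for a retested subset of genes; insulin dose and duration not given; both raised and lowered dpERK matter.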 Further read-outs or replicates are left out here. Not given: the amount of reagent, the time to read-out.

- Aim: 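Search across the genome for regulators of signalling from receptor tyrosine kinase to ERK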 (primary screen)
- Cell system: Drosophila S2R+ haemocyte-like cells expressing YFP-tagged ERK (Rolled)
- Reagents: long dsRNA against Drosophila genes
- Treatment: insulin stimulation versus unstimulated cells; dose and duration not given
- Read-out: 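Antibody staining for doubly phosphorylated ERK divided by ERK-YFP signal, as plate z-scores, in insulin-treated and untreated cells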
- Direction: replicate 1, z-score of dpERK with insulin: higher = more active ERK per ERK-YFP after insulin

COX4L | replicate 1, z-score of dpERK with insulin: 0.2
CG14286 | replicate 1, z-score of dpERK with insulin: 0.27
CG6873 | replicate 1, z-score of dpERK with insulin: -1.74
Hug | replicate 1, z-score of dpERK with insulin: 0.12
robl62A | replicate 1, z-score of dpERK with insulin: 0.46
Nepl10 | replicate 1, z-score of dpERK with insulin: -0.36
CG10562 | replicate 1, z-score of dpERK with insulin: 0.96
SCAR | replicate 1, z-score of dpERK with insulin: -0.72
CG7568 | replicate 1, z-score of dpERK with insulin: 0.66
mspo | replicate 1, z-score of dpERK with insulin: 0.5
CG10911 | replicate 1, z-score of dpERK with insulin: 1.12
CG13385 | replicate 1, z-score of dpERK with insulin: -0.1

2 of these entries in another layout.
| gene | replicate 1, z-score of dpERK with insulin |
| --- | --- |
| CG6873 | -1.74 |
| Hug | 0.12 |
